The campaign covered roughly 53,000 sequences. About 3,700 (7%) were called active.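 Rule for the calls: active = gene knockdowns whose robust z-score for IL-1 alpha signal is at least 2 or at most -2, so actives lie on both sides; inactive = the rest.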 Some of the results follow.

The test in a line: Components of the Cytosolic LPS Sensing Pathway: Gene Identification via Genome-wide siRNA Screen.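 Note: robust z of the log signal after scaling to non-targeting control siRNA wells of the plate.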 The settings on record: RAW264.7 macrophages, IL-1a HTRF, actives lie on both sides, screened at 100 nM (by protocol), cells primed 5 h with Pam3CSK4 first. The procedure, abridged:
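RAW264.7; siRNA 100 nM final, RNAiMAX, 48h 37 degrees C; Pam3CSK4 5 h; LipidA + TransIT-TKO 24 h; IL-1a HTRF; CellTiter-Glo viability; robust z vs negative-control median.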
A general note: TR-FRET usually uses a lanthanide donor and a delayed reading to cut background.
For GGAAGUGCUUUGAAGAAGATT against Strip2, the z-score was inactive: 1.21.

Regarding “CGAUGUUACUAUAGGAUCUTT against A730036I17Rik”, the z-score was inactive: 0.33.

As to GGCAGCUGGAUCUCUUUGATT against Txndc17, the z-score was inactive: -0.572.

For the sequence GGAAAAUGUUUGGUGUAAUTT against Zfp85, the z-score was inactive: -0.682.

Turning to GCAUACCAAUCACAGUCGATT against Dync2li1, the z-score was active: -2.55.

As to CCCACAAAACAUGACCGCCTT against Sirt6, the z-score is inactive: 1.26.

As to CCUCGACUCAUUCAGCUUGTT against Ogg1, the z-score was inactive: 0.965.

Take GGAGCUGACAGACAUAGACTT against Ctnnbl1: the z-score was inactive: -0.0159.

As for GAGGCCUUCCUUUUCUAUATT against Foxd2, the z-score was inactive: 0.876.

Take CCAUAUCCGUAGGUAUAUCTT against Htr2a: the z-score is inactive: 0.422.

As to GGCUCUAAAACUGUCAGACTT against Scp2d1, the z-score was active: 2.25.

With AUUAGAAGUAAACACGGGATT against Krtap19-1, the z-score is inactive: 0.835.

As to GCAGACAGUAAAUUGGUAATT against Mab21l3, the z-score is inactive: 0.915.

As for GGUCAAUUCAAGAUUGAUUTT against Macrod2, the z-score is inactive: -0.116.

GGUGCGAGAUGCAUACAUCTT against Cct6b: the z-score is inactive: 1.13.

Regarding GUGUCUGUUGGAAAGCAGATT against Tmem94, the z-score is inactive: -1.4.

For GGAACGACAAUAAAGCUUATT against Ninj1, the z-score was inactive: 0.029.

Regarding GGAUCCCUUGAAAUACCAATT against Lrpap1, the z-score is inactive: 0.0754.

Turning to GCGACUCAUUAAGGAUGUGTT against Actrt3, the z-score is inactive: 0.225.

As for GGUUCCAGAGAAACAAAAGTT against Cox7a2, the z-score was inactive: -0.305.

CCAGUUUGCACAAGUUUUCTT against Fyco1: the z-score was inactive: 1.94.

Turning to GUGGAAAUGUACUUCUCUGTT against Olfr257, the z-score is inactive: 0.435.

Turning to “GCCUACAGGAGUGAGAUAATT against Arhgap33os”, the z-score was inactive: -1.36.

With GGAUUUCCUUUUUAAAUCCTT against Zfp42, the z-score is inactive: 0.939.

GGAUUAUCAUGGUUUGAUCTT against Elp4: the z-score was inactive: 0.938.

As for GCGUAGCUGUAGUGAACCATT against Erh, the z-score was inactive: 1.78.

On to GGUGUCAAAUUGGUUCGCUTT against Mkx, for which the z-score is inactive: 0.619.

Take GCCAAUAGGUGAUUUUCUCTT against Vil1: the z-score is inactive: 0.875.

In the case of “CCUAAGCUUAUCUCAUAUUTT against 4930449I24Rik”, the z-score is inactive: -0.572.

On to CGUAUGGAGUCCAUUACUATT against Frmd4b, for which the z-score was inactive: 0.341.

For the sequence CCGUCUACAUAAAUUGCCCTT against Lrfn1, the z-score is inactive: 0.298.

For the sequence “GGCCAAAAUGUUUGUUUGGTT against E030011O05Rik”, the z-score is inactive: 0.0784.

As for GGCUGGUUUAUUCUGGUAUTT against Stradb, the z-score was inactive: 1.25.

For GGUCAGUCGUAUGAAAUCCTT against Tfcp2l1, the z-score is inactive: -0.501.

Take GCGAGGGAUAAUUUAUAGATT against Prkci: the z-score was inactive: 1.19.

For GAGCAAUAAGCUAGGGUGATT against Olfr1428, the z-score was inactive: 0.239.

For the sequence UUAUUGAGGCCGGGCUCAUTT against Kpna7, the z-score is inactive: -1.52.

Consider GGAUAGAAAAUCUGUGUUUTT against Trim60, for which the z-score was inactive: -0.401.

For the sequence GGGAGUGCGGAUUUCUUGUTT against Col9a2, the z-score was inactive: 0.712.

For GGAAUUGAGCAGGAAGAGGTT against Stx1b, the z-score is inactive: 0.479.

For GGAUUUAAAUCACCUGUAATT against Tdpoz1, the z-score was inactive: -0.864.

As to GGAUGCAGAAACGCACGGUTT against Ltb4r1, the z-score was inactive: 0.199.

As to CCACAAUCAUUAACAAGCUTT against Arl6, the z-score is inactive: 0.389.

GGUGCUAGACAGAGCUUACTT against Gdf10: the z-score was inactive: 1.5.

As to GGAAAGUGUUGUUUAAGAATT against Rint1, the z-score was inactive: 0.823.

Turning to GCAUCAGAGAUAUUAUUUGTT against Ube2a, the z-score is inactive: -0.363.

For GCAUCAUCAGCUGGUUCGUTT against Agpat2, the z-score was inactive: 0.589.

Turning to GGAUGAAGACAAUGAUAUUTT against Mecom, the z-score was inactive: 0.038.

GGCAUUGCAUUUGAGGAUCTT against Slc35f5: the z-score is inactive: 0.394.

As to GAUGAUCAACAAUAGAUGCTT against Sprr1b, the z-score is inactive: -0.964.

Regarding GGACCAAUGUUUUCUUCCUTT against Gngt2, the z-score was inactive: 0.773.

Turning to CGACCUGACUUUUCUUAGGTT against Dynlrb2, the z-score is inactive: 0.855.

As to GGCUAUGCUUUUGUCCAGUTT against Raly, the z-score was inactive: -0.392.

GGUCACAGAAACACCAUGUTT against Klhdc4: the z-score is inactive: -1.25.

Regarding GGUCAUUUUCAGAAGGCUGTT against Lynx1, the z-score is inactive: -1.22.

Regarding GCACCUCUACACUUUAGAUTT against Rack1, the z-score is inactive: -0.0792.

As to GGUCACCACACGAUCUACATT against Slc4a4, the z-score is active: 3.14.

Turning to GGGUCUCCUCUCUAAUCUATT against Bpifa2, the z-score is inactive: -0.229.

On to GGUUUUUAGCAGUUGUAGUTT against Adam3, for which the z-score was inactive: 0.339.

Take GGGUGAAAUCACCUCUCAGTT against Scn2b: the z-score was inactive: -0.345.

With GGAUGAAAUUGGAAAGGGCTT against Camkk2, the z-score was inactive: -0.0472.

Turning to GGGAAGUUGUCUGACUAUUTT against Cyc1, the z-score is inactive: 0.225.

As for GGCUCAAGCUAUGAAGAGATT against Gstm4, the z-score is inactive: -0.195.

In the case of CCUGAGAACAUUUUAAUCATT against Tas2r116, the z-score was inactive: -1.29.

As to GGAACACCACCUUAGAGAUTT against Hnrnpa2b1, the z-score is inactive: 1.52.

With GGAAGCUGAGAUUUAUUUUTT against Trpc4, the z-score was inactive: 0.389.

With ACUUCGUAAAAGAGCACAATT against Platr25, the z-score was inactive: 1.02.

For the sequence CCAUCUUACGAUUGCCUUCTT against Olfr362, the z-score is inactive: -0.17.

For the sequence GACAGUCUCAAAUUUAUCCTT against Lamtor2, the z-score is inactive: -1.55.

For GCCUGCAUAUGAAACAGUATT against Mturn, the z-score was inactive: 0.347.

For the sequence GGAGAUGCAAGGAAAAGUUTT against Faap24, the z-score was inactive: 0.201.

In the case of CGGACAGAUACAAUAGCUATT against Zc3h4, the z-score is inactive: -1.53.

In the case of GAACGGCUACAUCUGUUACTT against Bricd5, the z-score was inactive: 0.529.

Turning to GGAAAAGUUCCAUCUAGUATT against Pole, the z-score was inactive: -0.28.

As for GGCACCAAGUUUGACACGCTT against Zap70, the z-score is inactive: 1.33.

Regarding GGAGAACAUCGUUUCCAGCTT against Nlgn1, the z-score was inactive: 0.0831.

Consider CCCUUUCCUAUUUGUUAUGTT against Serpinb3d, for which the z-score was inactive: 0.754.

For GGACUUUUUCUAGAAACGATT against Fbxo16, the z-score is inactive: -1.17.

Turning to GGGCUUCCUAGUAUUCCACTT against Tuba4a, the z-score is inactive: 1.55.

For the sequence GGAUGUUAUUCAGUUUUCATT against BC051019, the z-score was active: 2.37.

For the sequence GGAAUUUGUCAUUCAGGAATT against Rad1, the z-score was inactive: 0.209.

Turning to GCAAGUGGAGUUUAUUGAUTT against Dbndd2, the z-score was inactive: -0.0399.

For the sequence GGAGGAGUUAAAUAUGAUCTT against Cnnm4, the z-score is inactive: 0.943.

CCUCCACUAUACGGUAAGUTT against Pla2g2c: the z-score is active: -3.37.

As for GGCCAAUGCACUGUGUUACTT against Tinag, the z-score is inactive: 1.25.

Take GGAUGUCCCACUGCUUUACTT against Gfod2: the z-score is inactive: 0.386.

Turning to GCCUUGUUGUGUUGGCUUATT against Olfr1111, the z-score is inactive: 0.549.

For the sequence GGCACAAGGAACCUACGUUTT against Perp, the z-score was inactive: -0.208.

For the sequence GGUUAGCCAGCUGAAUCAATT against Cxxc4, the z-score is inactive: 1.89.

Turning to GGGAUGAAGUAGUUUUAAUTT against Ggnbp2, the z-score was inactive: -0.606.

GGUUGGAUUCCUGAUAUUATT against Moxd2: the z-score is inactive: -0.22.

For the sequence GGAGGACAUUGGUAAAAAUTT against Uba1, the z-score was inactive: 1.54.

Take GGGAAGCAACAGUAAACAUTT against Ccdc82: the z-score is inactive: -1.11.

Turning to GGUGGACUUGUUUAAAAAGTT against Senp5, the z-score was inactive: 0.53.

Turning to GGGCUUUCUACGAACCAAGTT against Ovol1, the z-score is inactive: -0.0783.

Consider CGUGCUUUAUUGGAUCUGATT against Olah, for which the z-score is inactive: -0.0911.

As to GGUCAAAACAAAAGGAGGGTT against Ncf4, the z-score is inactive: 0.498.

As for GCGAGUACCCUAAAAACAUTT against Mmp14, the z-score is inactive: -0.583.

On to GGCAAAAAAAACUGCUAUATT against Adgrg7, for which the z-score was active: 3.36.

Regarding GUAGAAGAGUUUCCCACGGTT against Gm5431, the z-score was inactive: -0.0238.

As to CCUAUGGUGCUCUUAUAAATT against Dpp6, the z-score is inactive: -0.178.

Consider GGCAUAUGCAGGUAUCUGUTT against Defb5, for which the z-score is inactive: -0.127.

In the case of CCCUUCUCUGAUUGUCUGATT against Lce3b, the z-score is inactive: -0.452.

In the case of GGAAUCUCUGAAGAAGAAGTT against Jazf1, the z-score was inactive: -1.47.

Turning to CCACAAUCUGGCUCCUUCUTT against Ceacam1, the z-score is inactive: -0.588.

Turning to CCCUCUCUUUGGAUACACATT against Tenm4, the z-score is active: -2.98.

As to GGUAAGUUGUGUUUACUUATT against Aktip, the z-score is inactive: 0.688.

(Values after PubChem BioAssay AID1508600 (Functional Genomics Laboratory (NCATS/FGL), 2020).)
